Measurements from article PMC5703960.

Chains of the proteins cited; added tags and fusions are not shown.
UniProt O60260: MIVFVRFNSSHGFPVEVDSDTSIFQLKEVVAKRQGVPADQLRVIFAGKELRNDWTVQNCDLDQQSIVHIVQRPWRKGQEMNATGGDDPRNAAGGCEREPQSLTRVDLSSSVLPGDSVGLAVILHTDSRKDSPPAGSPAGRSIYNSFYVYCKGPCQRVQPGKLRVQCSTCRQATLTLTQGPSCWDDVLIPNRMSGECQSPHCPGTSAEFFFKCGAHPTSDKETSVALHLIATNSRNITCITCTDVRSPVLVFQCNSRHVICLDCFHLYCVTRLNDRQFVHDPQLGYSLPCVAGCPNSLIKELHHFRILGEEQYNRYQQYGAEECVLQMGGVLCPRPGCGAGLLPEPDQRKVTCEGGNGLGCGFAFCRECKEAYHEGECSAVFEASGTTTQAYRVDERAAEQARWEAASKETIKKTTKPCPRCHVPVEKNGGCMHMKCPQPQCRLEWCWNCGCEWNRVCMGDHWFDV
UniProt P55036: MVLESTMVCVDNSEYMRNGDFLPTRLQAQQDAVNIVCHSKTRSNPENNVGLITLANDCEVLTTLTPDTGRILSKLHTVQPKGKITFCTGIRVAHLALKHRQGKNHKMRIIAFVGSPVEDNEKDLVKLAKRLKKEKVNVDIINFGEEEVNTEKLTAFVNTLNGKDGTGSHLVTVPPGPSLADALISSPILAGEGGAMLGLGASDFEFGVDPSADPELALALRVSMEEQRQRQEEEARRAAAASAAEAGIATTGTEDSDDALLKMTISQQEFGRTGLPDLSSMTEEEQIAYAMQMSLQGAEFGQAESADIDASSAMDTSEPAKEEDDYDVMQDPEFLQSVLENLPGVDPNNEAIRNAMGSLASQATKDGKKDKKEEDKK

Target: Myc-tagged Parkin (pLPCX-Myc-Parkin), wild type (human) (UniProt O60260)
Assay: affinity purification with mass spectrometry; MCF7 cells transduced with pLPCX-Myc-Parkin or empty vector, MG132 (10 μM) 8 h; two sequential rounds of IP (anti-Myc beads, elution with Myc peptide, then anti-Parkin antibody), LC-MS/MS

Rpn10 (from UniProt P55036 1-377)
binding: binds

These are yes or no findings as the source states them, for the method shown. Binding seen in cells or lysates may run through a third protein. These calls come from enrichment with a bait or labelling near it, and not all partners need be listed.
